In test [1] the target is BAX (mouse (endogenous in superior mesenteric artery tissue)) (UniProt Q07813). Briefly: co-IP; BAX antibody on Protein A/G magnetic beads; cytoplasmic fraction of vascular tissue of WT or Drp1 KO mice after 4 h ischemia; Drp1 detected by blot.
Test [2] has the same target. Briefly: co-IP; BAX antibody on Protein A/G magnetic beads; mitochondrial fraction of vascular tissue of WT or Drp1 KO mice after 4 h ischemia; Drp1 detected by blot.

Chains of the proteins cited; added tags and fusions are not shown.
UniProt Q07813: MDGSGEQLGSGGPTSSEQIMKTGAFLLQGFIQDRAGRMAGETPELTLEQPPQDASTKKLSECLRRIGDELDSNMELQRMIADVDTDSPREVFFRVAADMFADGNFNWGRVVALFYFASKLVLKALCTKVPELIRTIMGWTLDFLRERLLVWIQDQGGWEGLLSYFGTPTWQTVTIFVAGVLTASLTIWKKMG
UniProt Q8K1M6: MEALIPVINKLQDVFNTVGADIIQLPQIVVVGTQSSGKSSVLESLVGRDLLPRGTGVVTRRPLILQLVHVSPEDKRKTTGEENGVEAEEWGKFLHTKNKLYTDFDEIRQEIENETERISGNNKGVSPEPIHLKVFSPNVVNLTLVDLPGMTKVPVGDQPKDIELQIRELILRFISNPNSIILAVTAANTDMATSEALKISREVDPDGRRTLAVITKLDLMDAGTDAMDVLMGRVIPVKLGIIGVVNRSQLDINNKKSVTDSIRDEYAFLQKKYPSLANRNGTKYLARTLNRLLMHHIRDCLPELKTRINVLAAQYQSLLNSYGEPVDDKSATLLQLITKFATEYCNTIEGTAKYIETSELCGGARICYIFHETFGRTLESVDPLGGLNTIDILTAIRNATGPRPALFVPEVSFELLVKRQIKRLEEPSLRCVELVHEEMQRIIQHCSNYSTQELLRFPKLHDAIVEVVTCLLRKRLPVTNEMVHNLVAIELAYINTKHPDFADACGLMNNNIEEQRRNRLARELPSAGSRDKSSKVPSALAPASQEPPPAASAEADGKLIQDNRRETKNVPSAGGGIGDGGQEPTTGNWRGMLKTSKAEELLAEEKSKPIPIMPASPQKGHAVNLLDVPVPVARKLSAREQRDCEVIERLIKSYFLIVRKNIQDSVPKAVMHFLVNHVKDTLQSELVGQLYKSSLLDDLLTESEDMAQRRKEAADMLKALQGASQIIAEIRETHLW

No constants are given. Whether binding was seen depends on the method and setting. Binding seen in cells or lysates may run through a third protein. Some binding calls cover weakened binding; strength is not graded here.

Take “dynamin-related protein 1 (Drp1) (from UniProt Q8K1M6 1-736)”: the binding result was “no binding (condition: in the cytoplasmic fraction)” in test [1] and “binds” in test [2].
